Measurements: paper PMC4879868
No constants are given. Whether binding was seen depends on the method and setting. Binding seen in cells or lysates may run through a third protein. These calls come from enrichment with a bait or labelling near it, and not all partners need be listed.

Biological target: T1, BirA-SH3TC2 (UniProt Q8TF17)
T1 sequence: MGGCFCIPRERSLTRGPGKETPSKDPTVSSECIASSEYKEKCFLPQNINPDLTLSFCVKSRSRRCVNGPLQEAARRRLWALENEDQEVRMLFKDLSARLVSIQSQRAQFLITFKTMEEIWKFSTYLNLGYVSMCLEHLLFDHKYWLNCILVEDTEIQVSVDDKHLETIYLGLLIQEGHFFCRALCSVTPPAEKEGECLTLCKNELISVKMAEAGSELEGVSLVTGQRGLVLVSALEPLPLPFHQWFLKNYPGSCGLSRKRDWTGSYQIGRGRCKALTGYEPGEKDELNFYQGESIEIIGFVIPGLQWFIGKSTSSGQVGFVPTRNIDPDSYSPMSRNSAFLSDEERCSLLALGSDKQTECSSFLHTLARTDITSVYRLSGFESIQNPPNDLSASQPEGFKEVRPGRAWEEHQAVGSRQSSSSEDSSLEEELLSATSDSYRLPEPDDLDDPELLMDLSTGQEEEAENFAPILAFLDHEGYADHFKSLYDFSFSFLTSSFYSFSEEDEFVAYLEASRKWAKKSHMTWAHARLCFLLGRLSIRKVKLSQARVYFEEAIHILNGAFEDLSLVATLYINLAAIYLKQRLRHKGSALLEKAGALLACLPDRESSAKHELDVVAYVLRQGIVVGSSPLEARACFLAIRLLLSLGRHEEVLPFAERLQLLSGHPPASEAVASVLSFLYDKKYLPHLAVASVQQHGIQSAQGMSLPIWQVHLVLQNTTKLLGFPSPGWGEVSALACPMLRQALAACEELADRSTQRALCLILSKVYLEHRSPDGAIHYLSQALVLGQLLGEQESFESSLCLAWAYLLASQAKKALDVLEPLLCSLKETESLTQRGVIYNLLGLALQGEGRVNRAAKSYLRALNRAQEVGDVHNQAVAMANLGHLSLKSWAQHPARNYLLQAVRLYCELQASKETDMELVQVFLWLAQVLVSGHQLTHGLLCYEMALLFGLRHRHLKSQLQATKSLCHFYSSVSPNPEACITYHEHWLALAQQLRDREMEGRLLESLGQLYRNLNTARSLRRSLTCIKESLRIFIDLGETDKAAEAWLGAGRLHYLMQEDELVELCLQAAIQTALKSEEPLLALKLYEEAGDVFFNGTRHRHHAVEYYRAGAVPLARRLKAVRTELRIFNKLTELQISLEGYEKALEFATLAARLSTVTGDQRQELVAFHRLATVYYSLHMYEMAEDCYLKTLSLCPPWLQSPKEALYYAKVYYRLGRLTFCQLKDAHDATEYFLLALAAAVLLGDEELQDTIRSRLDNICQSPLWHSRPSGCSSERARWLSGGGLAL
Assay: proximity labelling; BioID: RPE cells stably expressing BirA or BirA-SH3TC2, 50 μM biotin for 24 h at 37 °C; biotinylated proteins isolated from the lysate on streptavidin beads; LC-MSMS and immunoblot

- binding: binds
Substance: integrin-α6 (receptor)
